Data source: PubChem BioAssay AID1259405 (NCATS, 2018)
The whole screen tested about 50,000 reagents; this is a random part of them. Over the whole deposit, about 4,000 (8%) got an active call. 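Mouse siRNA library applied to hamster cells; one well for each siRNA.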 Entries without a mark were called inactive. Reagents against one gene are numbered here.

- Test: 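Silenced genes that increase secreted GFP made by CHO cells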 (primary screen)
- Cells: Chinese hamster CHO-K1 ovary cells with stable secreted eGFP expression
- Reagents: single siRNA against mouse genes, 0.8 pmol siRNA per well (2 µl of 400 nM stock)
- Timing: 3 days
- Measured: 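Per-well intracellular GFP measured by laser scanning cytometry, plus viability from ATP luminescence, each relative to plate median of non-targeting control wells, in %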
- Direction: GFP, % of control: higher = more GFP per well, higher productivity; viability (ATP), % of control: higher = more viable cells (more ATP)
- Active means: 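a knock-down is called active if GFP reaches 120% or more of non-targeting control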

Or10a3m (olfactory receptor family 10 subfamily A member 3M) #1 — GFP, % of control: 41.1; viability (ATP), % of control: 24.5
Or10a3m (olfactory receptor family 10 subfamily A member 3M) #2 — GFP, % of control: 74.7; viability (ATP), % of control: 70.5
Or10a3m (olfactory receptor family 10 subfamily A member 3M) #3 — GFP, % of control: 80.6; viability (ATP), % of control: 67.7
Hs3st3a1 (heparan sulfate (glucosamine) 3-O-sulfotransferase 3A1) #1 — GFP, % of control: 124 (active); viability (ATP), % of control: 104
Hs3st3a1 (heparan sulfate (glucosamine) 3-O-sulfotransferase 3A1) #2 — GFP, % of control: 164 (active); viability (ATP), % of control: 113
Hs3st3a1 (heparan sulfate (glucosamine) 3-O-sulfotransferase 3A1) #3 — GFP, % of control: 99.9; viability (ATP), % of control: 101
Tsg101 (tumor susceptibility gene 101) #1 — GFP, % of control: 56.2; viability (ATP), % of control: 56.3
Tsg101 (tumor susceptibility gene 101) #2 — GFP, % of control: 90.2; viability (ATP), % of control: 88
Tsg101 (tumor susceptibility gene 101) #3 — GFP, % of control: 79.9; viability (ATP), % of control: 125
Pgm2 (phosphoglucomutase 2) #1 — GFP, % of control: 100; viability (ATP), % of control: 94.6
Pgm2 (phosphoglucomutase 2) #2 — GFP, % of control: 61.7; viability (ATP), % of control: 62.7
Pgm2 (phosphoglucomutase 2) #3 — GFP, % of control: 88.1; viability (ATP), % of control: 106
Heatr1 (HEAT repeat containing 1) #1 — GFP, % of control: 67; viability (ATP), % of control: 52.7
Heatr1 (HEAT repeat containing 1) #2 — GFP, % of control: 25.7; viability (ATP), % of control: 37.6
Heatr1 (HEAT repeat containing 1) #3 — GFP, % of control: 68.9; viability (ATP), % of control: 66
Pkp4 (plakophilin 4) #1 — GFP, % of control: 68.6; viability (ATP), % of control: 61.4
Pkp4 (plakophilin 4) #2 — GFP, % of control: 68.5; viability (ATP), % of control: 73.3
Pkp4 (plakophilin 4) #3 — GFP, % of control: 52.5; viability (ATP), % of control: 70

Next part; the last 6 above are carried over.
Heatr1 (HEAT repeat containing 1) #1 — GFP, % of control: 67; viability (ATP), % of control: 52.7
Heatr1 (HEAT repeat containing 1) #2 — GFP, % of control: 25.7; viability (ATP), % of control: 37.6
Heatr1 (HEAT repeat containing 1) #3 — GFP, % of control: 68.9; viability (ATP), % of control: 66
Pkp4 (plakophilin 4) #1 — GFP, % of control: 68.6; viability (ATP), % of control: 61.4
Pkp4 (plakophilin 4) #2 — GFP, % of control: 68.5; viability (ATP), % of control: 73.3
Pkp4 (plakophilin 4) #3 — GFP, % of control: 52.5; viability (ATP), % of control: 70
Naglu (alpha-N-acetylglucosaminidase (Sanfilippo disease IIIB)) #1 — GFP, % of control: 103; viability (ATP), % of control: 98.8
Naglu (alpha-N-acetylglucosaminidase (Sanfilippo disease IIIB)) #2 — GFP, % of control: 93; viability (ATP), % of control: 81.4
Naglu (alpha-N-acetylglucosaminidase (Sanfilippo disease IIIB)) #3 — GFP, % of control: 51.5; viability (ATP), % of control: 42.8
Ccdc126 (coiled-coil domain containing 126) #1 — GFP, % of control: 123 (active); viability (ATP), % of control: 90.8
Ccdc126 (coiled-coil domain containing 126) #2 — GFP, % of control: 66.7; viability (ATP), % of control: 52.1
Ccdc126 (coiled-coil domain containing 126) #3 — GFP, % of control: 62.5; viability (ATP), % of control: 67.6
Lrfn2 #1 — GFP, % of control: 80.8; viability (ATP), % of control: 90.1
Lrfn2 #2 — GFP, % of control: 69; viability (ATP), % of control: 81.5
Lrfn2 #3 — GFP, % of control: 60.5; viability (ATP), % of control: 68.9
Pdgfra (platelet derived growth factor receptor, alpha polypeptide) — GFP, % of control: 57.6; viability (ATP), % of control: 62.8
Rngtt (RNA guanylyltransferase and 5'-phosphatase) #1 — GFP, % of control: 74.3; viability (ATP), % of control: 64.2
Rngtt (RNA guanylyltransferase and 5'-phosphatase) #2 — GFP, % of control: 66.4; viability (ATP), % of control: 63.4
Rngtt (RNA guanylyltransferase and 5'-phosphatase) #3 — GFP, % of control: 104; viability (ATP), % of control: 84.7
Cemip2 (cell migration inducing hyaluronidase 2) #1 — GFP, % of control: 73.5; viability (ATP), % of control: 83.9
Cemip2 (cell migration inducing hyaluronidase 2) #2 — GFP, % of control: 88.1; viability (ATP), % of control: 116
Cemip2 (cell migration inducing hyaluronidase 2) #3 — GFP, % of control: 106; viability (ATP), % of control: 127
Angpt4 (angiopoietin 4) #1 — GFP, % of control: 52.2; viability (ATP), % of control: 39.1
Angpt4 (angiopoietin 4) #2 — GFP, % of control: 82.7; viability (ATP), % of control: 83.2
Crispld1 (cysteine-rich secretory protein LCCL domain containing 1) #1 — GFP, % of control: 126 (active); viability (ATP), % of control: 106
Crispld1 (cysteine-rich secretory protein LCCL domain containing 1) #2 — GFP, % of control: 64.6; viability (ATP), % of control: 68.6
Crispld1 (cysteine-rich secretory protein LCCL domain containing 1) #3 — GFP, % of control: 150 (active); viability (ATP), % of control: 177
Cpsf3 (cleavage and polyadenylation specificity factor 3) #1 — GFP, % of control: 112; viability (ATP), % of control: 95.4
Cpsf3 (cleavage and polyadenylation specificity factor 3) #2 — GFP, % of control: 104; viability (ATP), % of control: 87.2
Cpsf3 (cleavage and polyadenylation specificity factor 3) #3 — GFP, % of control: 107; viability (ATP), % of control: 80.1
